Results from patent US20070092930A1, “Process for enhanced recovery of crude oil from oil wells using novel microbial consortium” (The Energy and Resources Institute, priority 2003, published 2007).
For at least one compound, name, drawing or mass did not settle the structure.

What was measured:
Format in all cases: cell-based, isolate of consortium MTCC S2-001
Conditions in all cases: antibiotic 100 ug/mL; inoculated at 80° C.; anaerobic nutrient medium
Strain 2 (Small rods) = assay: Antibiotic sensitivity, Strain 2
Strain 3 (Long rods) = assay: Antibiotic sensitivity, Strain 3
Strain 1 (Cocci) = assay: Antibiotic sensitivity, Strain 1

Measured: Antibiotic Sensitivity

CN(C)[C@@H]1C(=O)C(C(N)=O)=C(O)[C@@]2(O)C(=O)C3=C(O)c4c(O)cccc4[C@@](C)(O)[C@H]3[C@H](O)[C@@H]12 [Oxytetracyclin]
−: Strain 2 (Small rods) | Strain 3 (Long rods) | Strain 1 (Cocci)
